Some of the results follow. Further columns of the screen follow, without active or inactive calls. Compounds called inactive in the main read-out are mostly missing here. The note in brackets gives the kind of curve behind each potency; many fits are weak.
Assay: qHTS Assay for Lipid Storage Modulators in Drosophila S3 Cells;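 for cell number change: cells counted by Cell Tracker Red CMTPX staining in the red channel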
Details: BODIPY lipid droplet fluorescence, 18-24 h; for cell number change: measured here: cell count max response, cells fed with added oleic acid
Summary of the method: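 Drosophila S3 cells got compounds at several concentrations plus oleic acid (400 uM solution). Laser-scanning cytometry with 488 nm excitation read lipid droplets at 500-530 nm and cells at 575-640 nm. Percent activity was relative to 20 uM Triacsin C.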

[1] = measured here: lipid fluorescence (Fed channel) AC50, cells fed with added oleic acid
[2] = measured here: cell number channel AC50, cells fed with added oleic acid

SMILES | cell number change [%] | AC50 [1] | AC50 [2]
O=C(NCc1ccccc1C(F)(F)F)C1CCC(=O)N(C2CC2)C1 (stereo unspecified) | 19.8 | 29100 nM [rising, single point] | 
CCOc1cc(CNc2ccc(S(N)(=O)=O)cc2)cc(Cl)c1OC | 27.8 | 13000 nM [rising, partial curve] | 
CC(C)CSc1nc2ccccc2c(=O)[nH]1 |  | 2060 nM [falling, partial curve] | 2060 nM [falling, partial curve]
COc1ccc(C(=O)NC(=S)N2CC(C)OC(C)C2)cc1 (stereo unspecified) | -20.9 | 23100 nM [rising, single point] | 
Cc1ccc(C(C)n2cc(C(=O)NCc3ccccn3)nn2)cc1 (stereo unspecified) |  | 231 nM [rising, full curve, poor fit] | 
Cc1ccc(-n2nnnc2SCC(=O)NCC2CCCO2)cc1C (stereo unspecified) | 36.5 |  | 9200 nM [rising, single point]
COc1cc(OC)c(-c2nn3c(C4CCCCC4)nnc3s2)cc1OC |  | 130 nM [rising, full curve, poor fit] | 1160 nM [rising, partial curve]
CC(=O)c1c(C)[nH]c(C(=O)Nc2cccc3ccccc23)c1C | -3.91 |  | 
COc1ccccc1NS(=O)(=O)c1ccc(C)c(NC(=O)c2ccc(S(=O)(=O)N3CCCCCC3)cc2)c1 | -33.5 | 13000 nM [rising, partial curve, poor fit] | 29100 nM [falling, single point]
O=C(NC1CCN(C(=S)Nc2ccc(F)cc2)CC1)C1CCCCC1 | 4.44 | 2060 nM [rising, partial curve, poor fit] | 
CCNC(=S)NNC(=O)c1csc2c1CCCC2 | -17.9 |  | 231 nM [falling, full curve, poor fit]
CN(C)CCNc1cc(-c2ccncc2)nc2ccccc12 | 8.73 |  | 
CCCCCCCCCCSc1n[nH]c(N)n1 | 23.8 | 29.1 nM [rising, full curve] | 
CC(=O)Nc1ccc(NC(=O)C2CCN(C(=O)c3cccs3)CC2)cc1 | 0.545 | 29100 nM [rising, single point] | 
COc1ccc(OC)c(S(=O)(=O)N2CCC(C(=O)Nc3cc(C)ccc3C)CC2)c1 | 19.2 |  | 
O=C(CN1C(=O)NC2(CCCCC2)C1=O)Nc1ccc2[nH]c(=O)[nH]c2c1 | -13.8 | 92 nM [falling, full curve, poor fit] | 6510 nM [falling, single point]
O=C(O)CSCC(=O)N1CCN(S(=O)(=O)c2cc(Cl)cc(Cl)c2)CC1 | 1.9 | 130 nM [falling, full curve] | 
COc1cc(C(=O)NNC(=O)c2ccccc2OCc2c(C)noc2C)cc(OC)c1OC | 31.7 |  | 29100 nM [rising, single point]
NNC(=O)CNC(c1ccccc1)c1cc(Br)ccc1NC(=O)CCN1CCOCC1 (stereo unspecified) | -15.8 |  | 206 nM [falling, full curve, poor fit]
CCOC(=O)c1c(NC(=O)c2c(Br)cnn2C)c(C#N)nn1-c1ccccc1 | -1.53 | 2910 nM [falling, partial curve, poor fit] | 
Cc1ccc(SCC(=O)N(Cc2nc(-c3ccccc3)no2)C(C)C)cc1 | 16 |  | 

Molecules listed so far that contain fluorine:
SMILES | cell number change [%] | AC50 [1] | AC50 [2]
O=C(NCc1ccccc1C(F)(F)F)C1CCC(=O)N(C2CC2)C1 (stereo unspecified) | 19.8 | 29100 nM [rising, single point] | 
O=C(NC1CCN(C(=S)Nc2ccc(F)cc2)CC1)C1CCCCC1 | 4.44 | 2060 nM [rising, partial curve, poor fit] | 

Next results follow:

SMILES | cell number change [%] | AC50 [1] | AC50 [2]
Cc1ccccc1/C=N/n1c(-c2ccccn2)n[nH]c1=S | -8.39 | 731 nM [falling, full curve, poor fit] | 
CCCCN(Cc1ccccc1)C(=O)C1CCC(=O)N(CCc2ccccn2)C1 (stereo unspecified) |  | 29100 nM [rising, partial curve, poor fit] | 
Cc1ccc(NC(=O)COC(=O)c2cc(=O)c3cc(F)ccc3o2)cc1 | 3.5 |  | 
CCCCCCCCCC(=O)NNC(=O)c1c(O)c2ccccc2n(CCC)c1=O | 15.3 | 259 nM [rising, full curve, poor fit] | 
CC(=O)Nc1cccc(OC(=O)N2CCOCC2)c1 | -4.96 | 16400 nM [falling, single point] | 
Cc1ccccc1C(=O)NC(=S)Nc1cccc(NC(=O)C(C)C)c1 | -30.8 | 6510 nM [falling, single point] | 
Cc1ccc(C(=O)c2ccc(N3CCN(C)CC3)c([N+](=O)[O-])c2)cc1 | -16.7 |  | 29.1 nM [falling, full curve, poor fit]
C/C(=N/NC(=O)c1ccc(Br)o1)c1ccc(C)o1 | -3.72 | 2910 nM [rising, partial curve] | 
COc1ccc2cc(CCOC3CCCCO3)ncc2c1 (stereo unspecified) | -8.25 | 517 nM [rising, full curve] | 
CC(Oc1ccccc1)C(=O)N/N=C/c1ccccn1 (stereo unspecified) | 26.4 |  | 
CC(=O)N1c2ccc(S(=O)(=O)NCCC(=O)NCCc3ccc(Cl)cc3)cc2CC1C (stereo unspecified) | 11.3 | 29100 nM [rising, single point] | 
C=CCn1c(SCC(=O)Nc2sccc2C(N)=O)nc2sc(CC)cc2c1=O | -9.53 |  | 411 nM [rising, full curve]
CCCOc1ccc(N2C(=O)CC(SCC(N)C(=O)OCC)C2=O)cc1 (stereo unspecified) | -5.29 |  | 
Cc1ccc(NC(=O)N/C=C/c2ccccc2)cc1 | -20.6 | 20600 nM [falling, single point] | 
CSc1ccc(CNC(=O)Cn2nc(C)c3c(C)n(-c4ccc(C)cc4)nc3c2=O)cc1 | -4.45 | 29100 nM [rising, single point] | 
CC(C)OP(=O)(OC(C)C)C(Nc1ccccc1)c1cccc([N+](=O)[O-])c1 (stereo unspecified) | -11.2 | 16400 nM [rising, partial curve, poor fit] | 
CC(C)(C)Nc1nc2nonc2nc1NC(C)(C)C | -12.9 |  | 
Cc1oc(C(C)(C)C)cc1C(=O)Nc1ccc2c(c1)OCCO2 | 35.7 |  | 32600 nM [rising, single point]
O=c1cc(-c2cccc(F)c2)[nH]c2ccccc12 |  |  | 259 nM [falling, partial curve, poor fit]
CCOC(=O)N1CCN(S(=O)(=O)c2ccc(C(=O)Nc3nnc(CC)o3)cc2)CC1 | 200 | 92 nM [falling, full curve, poor fit] | 
COc1ccc(C(=O)c2c(C(F)(F)F)oc3c2C(=O)c2ccccc2C3=O)cc1OC | -43.1 | 2910 nM [falling, full curve] | 4610 nM [falling, full curve, poor fit]

SMILES | cell number change [%] | AC50 [1] | AC50 [2]
CC(C)CC(=O)Nc1cc([N+](=O)[O-])ccc1Cl | 2.45 | 1460 nM [rising, partial curve] | 
Nc1c(N(Cc2ccco2)C(=O)COc2ccccc2)c(=O)[nH]c(=O)n1Cc1ccccc1 | 1.68 | 4.61 nM [rising, full curve, poor fit] | 
NS(=O)(=O)c1ccc(CCNC(=O)c2cncc(Br)c2)cc1 | -14.8 |  | 
O=C(COC(=O)c1ccc2c(c1Cl)C(=O)c1ccccc1C2=O)NC1CC1 | -31.5 | 73.1 nM [rising, full curve, poor fit] | 29100 nM [falling, single point]
Cc1cc(NO)c(C(C)C)cc1N=O | 20.6 | 366 nM [falling, full curve] | 7310 nM [falling, partial curve]
COc1ccc(CCN2CC(C(=O)NCc3nc4ccccc4n3C)CCC2=O)cc1 (stereo unspecified) | -29 | 651 nM [falling, single point] | 
O=C(CN1C(=O)/C(=C/c2ccccc2F)Sc2ccccc21)NCC1CCCO1 (stereo unspecified) | -21.5 | 2590 nM [rising, single point] | 
COc1ccccc1CNC(=O)C(CCSC)NS(=O)(=O)c1ccc2c(c1)oc(=O)n2C (stereo unspecified) | -15.5 |  | 
COc1ccc(NC(=O)Nc2ccccc2F)cc1 | 51.7 |  | 8200 nM [rising, partial curve, poor fit]
O=C(N/C(=C\c1ccc(Br)cc1)c1nc2ccccc2[nH]1)c1ccco1 | -16.3 | 29100 nM [falling, single point] | 
Cc1ccnc(NC(=O)C2CC(=O)N(Cc3ccccc3)C2)c1 (stereo unspecified) |  |  | 116 nM [falling, full curve, poor fit]
O=C(COC(=O)c1cc[n+]([O-])cc1)Nc1cccc(Cl)c1Cl | -32.3 |  | 13000 nM [falling, partial curve]
COc1ccc(CCNC(=O)CN(c2cc(C)cc(C)c2)S(=O)(=O)c2c(C)noc2C)cc1OC | -41.1 | 2310 nM [rising, single point] | 29100 nM [falling, single point]
COc1ccc(/C(N)=N/OC(=O)c2cccc([N+](=O)[O-])c2C)cc1OC | 65.2 | 1460 nM [rising, partial curve] | 1160 nM [rising, full curve, poor fit]
O=C1C=C(c2ccc(C(=O)O)cc2)C[C@@H](c2ccc3c(c2)OCO3)C1 | -27.3 |  | 
Cc1ccc(S(=O)(=O)N(c2ccc(Br)cc2)C2C=CS(=O)(=O)C2)cc1 (stereo unspecified) | -28.7 |  | 
O=C(CSCCO)Nc1ccc(C23CC4CC(CC(C4)C2)C3)cc1 | -28.1 | 20600 nM [falling, single point] | 
Cc1cccc(OCCNc2cc(N3CCOCC3)ccc2[N+](=O)[O-])c1 |  | 4110 nM [rising, partial curve] | 4610 nM [rising, single point]
O=[N+]([O-])c1ccc(CN2CCC(Cc3ccccc3)CC2)cc1 | 13.3 | 29100 nM [falling, single point] | 
Cc1cc(NC(=O)COC(=O)C2CCN(C(=O)c3ccc(Cl)cc3)CC2)no1 | -33 | 2060 nM [falling, single point] | 4610 nM [falling, full curve]

Source: PubChem BioAssay AID2685 (National Center for Advancing Translational Sciences (NCATS), 2010)
